From PubChem BioAssay AID504444 (National Center for Advancing Translational Sciences (NCATS), 2011)
Out of some 360,000 compounds screened, about 7,500 (2.1%) were called active. Inconclusive results, whose numbers are uncertain, are shown with a selection of clear calls. The call rests on the fitted dose curve; in most records, active means well fitted inhibition curve with a large enough effect; inconclusive means small, poorly fitted or top-dose-only effect, or effect the other way; inactive means flat fitted curve, though single readings scatter. Potencies beside an inconclusive call are fits to weak or partial responses and may not hold up. Some structures have more than one record in an assay (separate samples or runs), and their calls can disagree.
Potency means the concentration at half of the fitted maximal effect.

Test: Nrf2 qHTS screen for inhibitors; further: nearly all actives have a fitted effect of over 60% in size
Conditions: A549 ARE-Fluc reporter, luciferase luminescence, 18-24 h; series mostly up to 46 µM
Summary of the method: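 A549 ARE_Fluc cells (5000/well, 5% FBS OPTI-MEM) pre-incubated 2 h, then treated with compounds 18-24 h at 37C/5% CO2 in concentration-response. CellTiter-Fluor viability read first; BugLite luciferase luminescence after 15 min at room temperature gives Nrf2 activity.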
In the case of `C[n+]1cc(-c2ccccc2)oc1-c1ccccc1`, the Potency is reported as inconclusive: 14.6 µM [activator, single point].
With `O=C(Nc1ccc2c(c1)OCO2)c1ccc2nc[nH]c2c1` the Potency was inconclusive: 18.4 µM [activator, partial curve, poor fit].
In the case of `CCCN(CCC)S(=O)(=O)c1ccc(C(=O)Nc2nnc(-c3cccc(OC)c3)o2)cc1`, the Potency is reported as active: 6.51 µM.
With `CCN1C(=O)[C@H]2[C@@H](c3ccc(-c4ccccc4)cc3)N3CCC[C@@]3(C(=O)OC)[C@H]2C1=O` the Potency was active: 14.6 µM.
For `COc1cccc(Cn2cc(S(=O)(=O)c3ccc(C)cc3)c(=O)c3cc4c(cc32)OCO4)c1`, the Potency was inconclusive: 20.6 µM [activator, single point].
In the case of `CC(=O)N1N=C(c2ccc(C)cc2)CC1c1ccc2c(c1)OCO2` (stereo unspecified), the Potency is reported as inconclusive: 16.4 µM [activator, partial curve].
With `COc1ccc(C(=O)N=c2sccn2C)cc1` the Potency was inconclusive: 11.6 µM [activator, partial curve].
For `COc1ccc(NC(=O)c2ccco2)cc1NC(=O)COc1ccc(C)cc1C`, the Potency was “inactive”.
In the case of `CCC(=O)N1CCc2cc(OC)c(OC)cc2C1COc1ccc(C(=O)OC)cc1` (stereo unspecified), the Potency is reported as inconclusive: 9.2 µM [falling, partial curve, poor fit].
With `Clc1ccc(CSc2nc3ncccc3[nH]2)cc1` the Potency was inconclusive: 0.92 µM [activator, partial curve, poor fit].
For `Cc1ccc(NC(=O)Cc2ccc(NC(=O)N3CCCCc4ccccc43)cc2)cc1`, the Potency was inconclusive: 23.1 µM [falling, partial curve, poor fit].
With `CCCOc1ccc(C(=O)C(CN2CCCC2)c2ccccc2)cc1` (stereo unspecified) the Potency was “inactive”.
In the case of `Cc1cccc(C(=O)OCC(=O)N2CC(C)OC(C)C2)c1C` (stereo unspecified), the Potency is reported as inconclusive: 0.0082 µM [falling, full curve, poor fit].
In the case of `CCCc1ccc(NC(=O)C2CCN(c3cnccn3)CC2)cc1`, the Potency is reported as inconclusive: 23.1 µM [falling, single point].
In the case of `Cc1ccc(C(=O)NC2CCN(C(=O)Nc3ccccc3Cl)CC2)cc1`, the Potency is reported as inconclusive: 5.17 µM [activator, full curve, poor fit].
For `Cc1ccc(C(C)C)c(OCc2nnc(SCC(=O)Nc3ncc(C)s3)n2C)c1`, the Potency was inconclusive: 16.4 µM [falling, partial curve, poor fit].
In the case of `O=C(Nc1nnc(SCc2ccc(F)cc2)s1)c1ccccn1`, the Potency is reported as inconclusive: 29.1 µM [falling, single point].
In the case of `COC(=O)C1=C(C)NC2=C(C(=O)c3ccccc32)C1c1cccc(OC)c1` (stereo unspecified), the Potency is reported as “inactive”.
With `COc1ccc(CC(=O)Nc2cccc(-c3nnc(-c4ccccc4)o3)c2)cc1OC` the Potency was inconclusive: 10.3 µM [falling, partial curve, poor fit].
In the case of `Nc1ccc(-c2nc3cc([N+](=O)[O-])ccc3o2)cc1`, the Potency is reported as inconclusive: 2.91 µM [activator, partial curve, poor fit].
In the case of `CC(C)CC(=O)Nc1c(C(=O)N2CCN(c3ccccc3F)CC2)oc2ccccc12`, the Potency is reported as active: 25.9 µM.
With `Cc1cc(C)c2c(-n3cccc3)c(C(=O)NCCc3ccccc3)sc2n1` the Potency was “inactive”.
With `CCOC(=O)c1c(CSc2ccsc2)n(C)c2cc(Br)c(O)c(CN(C)C)c12` the Potency was “inactive”.
In the case of `Cc1c(CNC(=O)c2nn3c(c2Cl)NC(c2ccccc2)CC3C(F)(F)F)cnn1C` (stereo unspecified), the Potency is reported as inconclusive: 25.9 µM [falling, single point].
In the case of `O=C(Nc1nc(-c2ccco2)c(-c2ccco2)s1)c1c(F)cccc1Cl`, the Potency is reported as inconclusive: 32.6 µM [falling, single point].
In the case of `CC(/C=N/NC(=O)c1cc(-c2cccn2C)n[nH]1)=C\c1ccccc1`, the Potency is reported as inconclusive: 23.1 µM [falling, single point].
In the case of `COc1ccc(C2/C(=C(/O)c3ccccc3)C(=O)C(=O)N2c2ccccn2)cc1` (stereo unspecified), the Potency is reported as inconclusive: 14.6 µM [activator, partial curve, poor fit].
With `Cc1ccc(-n2ncc3c(SCC(=O)NNC(=O)C(C)C)ncnc32)cc1` the Potency was inconclusive: 6.51 µM [activator, single point].
For `COc1ccc(CSc2nc3ccccc3[nH]2)cc1`, the Potency was inconclusive: 2.06 µM [activator, partial curve].
For `COC1=C(Nc2ccc(C)cc2)C(=O)c2ccccc2C1=O`, the Potency was active: 16.4 µM.
In the case of `O=C(NN=Cc1ccccc1O)NN=Cc1ccccc1O`, the Potency is reported as “inactive”.
In the case of `CC(C)NC(=O)CN1C(=O)c2ccccc2S1(=O)=O`, the Potency is reported as “inactive”.
With `Cc1csc(-c2coc3cc(O)cc(C)c3c2=O)n1` the Potency was inconclusive: 5.8 µM [activator, single point].
For `COc1ccccc1N1CCN(C(=O)C2CCN(S(=O)(=O)c3ccccc3F)CC2)CC1`, the Potency was inconclusive: 25.9 µM [falling, partial curve, poor fit].
For `COc1ccc(S(=O)(=O)Cc2ccc(C(=O)NC3CCCCC3)o2)cc1`, the Potency was active: 14.6 µM.
For `Cc1ccc(-c2nc3sc(C#N)c(N)n3c(=O)c2C#N)cc1`, the Potency was inconclusive: 7.31 µM [activator, partial curve].
In the case of `Cc1cccc(N2CCN(c3ccc(C(=O)O)cc3NC(=O)c3ccccc3F)CC2C)c1` (stereo unspecified), the Potency is reported as inconclusive: 29.1 µM [falling, single point].
With `Cn1c(=O)n(CCc2ccccc2)c(=O)c2c1nc1n2CCN1c1ccc(Cl)cc1` the Potency was “inactive”.
With `CC(C)(C)OC(=O)C[C@@H]1C/C=C\C[C@H](CC(=O)N[C@@H](CO)Cc2ccccc2)C(=O)N[C@H](Cc2ccccc2)COC1=O` the Potency was “inactive”.
In the case of `O=C(CCS(=O)(=O)c1ccccc1)N1CCN(c2cccc(C(F)(F)F)c2)CC1`, the Potency is reported as inconclusive: 29.1 µM [falling, single point].
In the case of `COc1ccc(Cn2nnc3c(C)n[nH]c(=O)c32)cc1`, the Potency is reported as “inactive”.
For `Cc1ccc2nc(NC(=O)c3cccs3)sc2c1`, the Potency was inconclusive: 2.59 µM [activator, partial curve].
With `O=c1cc(-c2ccc(O)cc2)oc2ccc(O)cc12` the Potency was “inactive”.
With `NC1=NC(=O)/C(=C/C=C/c2cccs2)S1` the Potency was inconclusive: 32.6 µM [falling, single point].
With `Cc1ccc(NC(=S)NC(NC(=O)c2ccccc2)C(Cl)(Cl)Cl)c(C)c1` (stereo unspecified) the Potency was active: 20.6 µM.
For `O=C(Oc1cccc(-n2cnnn2)c1)c1ccccc1Cl`, the Potency was inconclusive: 5.17 µM [falling, partial curve, poor fit].
With `COc1cc(C(=O)NNC(=O)c2cc(-c3ccccc3)n[nH]2)cc(OC)c1C` the Potency was inconclusive: 29.1 µM [falling, single point].
For `CCCCCCSc1ccc([C@@H]2[C@@H]3C(=O)N(CC)C(=O)[C@@H]3[C@]3(C(=O)OC)CCCCN23)cc1OC`, the Potency was inconclusive: 29.1 µM [falling, single point].
With `COc1cccc(C(=O)NC2=NC(c3ccc(N(C)C)cc3)CC(=O)N2)c1` (stereo unspecified) the Potency was inconclusive: 18.4 µM [activator, partial curve, poor fit].
With `CCn1c(=O)c2cc(C(=O)NCCC(C)C)sc2c2ccccc21` the Potency was inconclusive: 13 µM [falling, partial curve].
In the case of `COc1ccc(C(=O)O)cc1S(=O)(=O)NC(C)C12CC3CC(CC(C3)C1)C2` (stereo unspecified), the Potency is reported as inconclusive: 4.11 µM [falling, partial curve, poor fit].
For `O=C(O)c1cccc(S(=O)(=O)N(Cc2ccccc2)c2ccccc2Cl)c1`, the Potency was “inactive”.
With `Cc1cc(Cl)ccc1OCC(=O)Nc1ccncc1` the Potency was active: 23.1 µM.
For `Brc1ccccc1Cn1c(-c2cscn2)nc2ccccc21`, the Potency was inconclusive: 29.1 µM [activator, single point].
With `O=C(C(=O)N(Cc1ccccc1)Cc1ccccc1)c1c(-c2ccccc2)[nH]c2ccccc12` the Potency was inconclusive: 18.4 µM [falling, partial curve, poor fit].
With `O=C(c1cccc(Cl)c1)C1CCCN(S(=O)(=O)c2ccccc2)C1` (stereo unspecified) the Potency was inconclusive: 16.4 µM [falling, single point].
For `COC(CN(C)S(=O)(=O)c1cc2c3c(c1)CCN3C(=O)CC2)OC`, the Potency was inconclusive: 16.4 µM [activator, partial curve, poor fit].
With `COc1ccc(C2CC(=O)c3cnc(N4CCN(Cc5ccccc5)CC4)nc3C2)cc1` (stereo unspecified) the Potency was inconclusive: 25.9 µM [falling, partial curve, poor fit].
In the case of `COC(=O)c1c(NC(=O)CC2SC(N)=NC2=O)sc2c1CCC(C)C2` (stereo unspecified), the Potency is reported as inconclusive: 11.6 µM [falling, partial curve].
With `COc1ccc(C2Nc3ccccc3C(=O)N2Cc2ccco2)cc1COc1cccc(NC(C)=O)c1` (stereo unspecified) the Potency was inconclusive: 20.6 µM [falling, single point].
With `Cc1ccc(-c2nn(-c3ccccc3)cc2C2SCC(=O)N2Cc2ccccc2)o1` (stereo unspecified) the Potency was inconclusive: 20.6 µM [falling, single point].
In the case of `CC(C)Oc1ccc(CNC(=O)CCCn2c(=O)c3cccn3c3cccnc32)cc1`, the Potency is reported as “inactive”.
With `COc1cccc(-c2nnc3n(Cc4ccccc4Cl)c(=O)c4ccccc4n23)c1O` the Potency was “inactive”.
With `Cc1ccc(S(=O)(=O)N2CCOCC2)cc1C(=O)OCC(=O)N1CCCC1=O` the Potency was inconclusive: 20.6 µM [activator, partial curve, poor fit].
With `CCN(CC)S(=O)(=O)c1ccc(N2CCOCC2)c(NC(=O)c2cc(-c3ccccn3)nc3ccccc23)c1` the Potency was inconclusive: 10.3 µM [falling, partial curve].
For `CC(=O)N/C(N)=N/c1nc(=O)c2ccccc2s1`, the Potency was inconclusive: 14.6 µM [activator, partial curve].
